Experimental data published in paper PMC6993123.
No constants are given. Whether binding was seen depends on the method and setting. Binding seen in cells or lysates may run through a third protein. Some binding calls cover weakened binding; strength is not graded here. Tags and fused reporters may be left off the sequences shown.

Target: T1, 3xFLAG-SNAP-23 (human) (UniProt O00161)
T1 sequence: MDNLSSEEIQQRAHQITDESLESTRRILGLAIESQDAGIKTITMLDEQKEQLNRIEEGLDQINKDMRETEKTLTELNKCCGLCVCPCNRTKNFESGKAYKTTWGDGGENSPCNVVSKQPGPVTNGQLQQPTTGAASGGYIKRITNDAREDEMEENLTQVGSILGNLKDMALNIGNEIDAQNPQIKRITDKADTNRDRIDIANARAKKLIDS
Experiment: co-IP; HeLa cells infected with C. trachomatis L2 (MOI 5) or mock infected, transfected with 3xFLAG-SNAP-23; lysed at 24 h pi in 50 mM Tris pH 8.0, 150 mM NaCl, 10 mM EDTA, 5% glycerol, 1% Triton X-100; anti-FLAG (M2) overnight at 4°C, Protein G Plus agarose; Western blot

B1: Syntaxin 3 (protein, UniProt Q13277 1-289)
chain: MKDRLEQLKAKQLTQDDDTDAVEIAIDNTAFMDEFFSEIEETRLNIDKISEHVEEAKKLYSIILSAPIPEPKTKDDLEQLTTEIKKRANNVRNKLKSMEKHIEEDEVRSSADLRIRKSQHSVLSRKFVEVMTKYNEAQVDFRERSKGRIQRQLEITGKKTTDEELEEMLESGNPAIFTSGIIDSQISKQALSEIEGRHKDIVRLESSIKELHDMFMDIAMLVENQGEMLDNIELNVMHTVDHVEKARDETKKAVKYQSQARKKLIIIIVLVVVLLGILALIIGLSVGLN
Question: How did the binding turn out when B1 was run?
Answer: binds
